{
  "source": "PubChem BioAssay AID540276",
  "about": "(National Center for Advancing Translational Sciences (NCATS), 2011)",
  "note": "Screen size: about 300,000 compounds; about 5,400 (1.8%) were called active. The inconclusive results got no clear call from the source; some entries with a clear call stand among them for comparison. Calls come from the whole dose curve; tested in HEK293 cells. Where the call is inconclusive, the potency comes from a doubtful curve fit. Potency is the fitted concentration of half-maximal effect.",
  "data": [
    {"test": "qHTS for inhibitors of binding or entry into cells for Marburg Virus", "settings": "Marburg virus pseudotyped entry inhibition, cell reporter; series mostly up to 37.8 µM", "values": [
      {"molecule": "Cc1cccc(C)c1NC(=O)Cn1c(CN2CCCCC2)nc2ccccc2c1=O", "Potency": "inactive"},
      {"molecule": "CN(C)c1ccc(C(=S)N2CCCCCC2)cc1", "Potency": "inactive"},
      {"molecule": "Cc1c(C(=O)Nc2ccc(F)cc2F)nnn1-c1ccccc1Br", "Potency": "inactive"},
      {"molecule": "Cc1ccc(/C=c2/sc3nnc(-c4ccccc4Cl)n3c2=O)o1", "Potency": "inconclusive: 35.5 µM [activator, single point]"},
      {"molecule": "O=C(NCCSCc1ccco1)Nc1cc(Cl)cc(Cl)c1", "Potency": "inconclusive: 6.31 µM [activator, single point]"},
      {"molecule": "Cc1n[nH]c(C)c1S(=O)(=O)Nc1ccc2c(c1)OCCO2", "Potency": "inconclusive: 35.5 µM [activator, single point]"},
      {"molecule": "COc1ccc(NC(=S)Nc2cccc(C(F)(F)F)c2)c(C)c1", "Potency": "inconclusive: 0.631 µM [inhibitor, partial curve, poor fit]"},
      {"molecule": "CC(C)n1cc(/C=C2/SC(=O)N(CC(=O)N3CCCC3)C2=O)c2ccccc21", "Potency": "inactive"},
      {"molecule": "Cc1c(C(=O)N(C)CCn2ccnc2C)oc2c(F)cccc12", "Potency": "inconclusive: 6.31 µM [activator, single point]"},
      {"molecule": "Clc1ccc(-c2nnc3n2CCCC3)cc1Cl", "Potency": "inconclusive: 29.1 µM [activator, partial curve, poor fit]"},
      {"molecule": "COc1cccc(-c2cc(C(F)(F)F)nc(NCc3ccc(F)cc3)n2)c1", "Potency": "inactive"},
      {"molecule": "Cc1nccn1CC(=O)N/N=C/c1c[nH]c2ccccc12", "Potency": "inconclusive: 2.82 µM [activator, single point]"},
      {"molecule": "Cn1c(=O)c(C(=O)N2CCc3ccccc32)cc2cccnc21", "Potency": "inconclusive: 3.16 µM [inhibitor, single point]"},
      {"molecule": "COc1ccccc1NC(=O)C(=O)/C=C(\\O)c1ccccc1", "Potency": "inconclusive: 0.562 µM [activator, full curve, poor fit]"},
      {"molecule": "COCCN(Cc1nc2ccccc2c(=O)[nH]1)C(=O)COc1ccccc1-c1ccccc1", "Potency": "inconclusive: 3.55 µM [inhibitor, full curve, poor fit]"},
      {"molecule": "Cc1cc(O)c(Sc2ccc(Cl)cc2)c(=O)[nH]1", "Potency": "inactive"},
      {"molecule": "COc1ccc(-c2nc3ccccc3s2)cc1NC(=O)c1ccccc1OC", "Potency": "inconclusive: 7.08 µM [activator, partial curve, poor fit]"},
      {"molecule": "S=C(Nc1ccc(Oc2ccccc2)cc1)NC1CCCCC1", "Potency": "inconclusive: 12.6 µM [inhibitor, partial curve, poor fit]"},
      {"molecule": "CCOC(=O)c1nnn(-c2nonc2N)c1-c1cccc2ccccc12", "Potency": "inconclusive: 8.91 µM [inhibitor, partial curve, poor fit]"},
      {"molecule": "O=C(c1ccco1)c1nc2c(n1O)CCCCC2", "Potency": "inconclusive: 15.8 µM [activator, partial curve, poor fit]"},
      {"molecule": "CCOCCOC(=O)c1[nH]c2c(c1C)C(=O)CC(c1ccc(OC)c(OC)c1)C2", "note": "(centres undefined)", "Potency": "inconclusive: 10 µM [inhibitor, partial curve, poor fit]"},
      {"molecule": "CCCC1CC(C)(/C(C)=N\\NC(N)=S)OC1=O", "note": "(centres undefined)", "Potency": "inactive"},
      {"molecule": "Cc1ccccc1NS(=O)(=O)c1cc(C(=O)NCCC2=CCCCC2)ccc1C", "Potency": "inactive"},
      {"molecule": "Cc1ccc2nc(SCC(=O)Nc3c(F)cccc3F)[nH]c2c1", "Potency": "inconclusive: 12.6 µM [inhibitor, partial curve, poor fit]"},
      {"molecule": "O=C(Nc1ccc2nccnc2c1)Nc1ccccc1Cl", "Potency": "inconclusive: 3.55 µM [activator, full curve, poor fit]"},
      {"molecule": "Cn1c(=O)n(C)c2cc(/C=N/NC(=S)NCc3ccccc3)ccc21", "Potency": "inconclusive: 6.31 µM [activator, single point]"},
      {"molecule": "CCCCN(C)S(=O)(=O)c1ccc(C(=O)Nc2nnc(CSC)o2)cc1", "Potency": "inconclusive: 17.8 µM [inhibitor, single point]"},
      {"molecule": "COc1ccc(/C=C2\\SC(=S)N(CC(=O)NNC(=O)c3ccncc3)C2=O)cc1", "Potency": "inconclusive: 15.8 µM [inhibitor, single point]"},
      {"molecule": "C=CCn1c(=O)[nH]c2cc(C(=O)N3CCN(c4cccc(Cl)c4)CC3)ccc2c1=O", "Potency": "inconclusive: 11.2 µM [inhibitor, single point]"},
      {"molecule": "COc1ccc(CCNc2nc(C)c(C(C)=O)s2)cc1OC", "Potency": "inactive"},
      {"molecule": "O=C(Nc1nnc(SCc2cccc3ccccc23)s1)C1COc2ccccc2O1", "note": "(centres undefined)", "Potency": "inconclusive: 4.47 µM [inhibitor, single point]"},
      {"molecule": "O=C(Nc1nnc(CCS(=O)(=O)c2ccc3ccccc3c2)s1)c1ccc([N+](=O)[O-])cc1", "Potency": "inconclusive: 17.8 µM [activator, single point]"},
      {"molecule": "NS(=O)(=O)c1cccc(NC(=O)CN2CCN(Cc3ccc4c(c3)OCO4)CC2)c1", "Potency": "inconclusive: 35.5 µM [inhibitor, single point]"},
      {"molecule": "CC1(C)CC(=O)C(Sc2ccccc2C(=O)O)=C(O)C1", "Potency": "inconclusive: 20 µM [inhibitor, single point]"},
      {"molecule": "O=C(NCCO)c1cccc(S(=O)(=O)N2CCCCC2)c1", "Potency": "inactive"},
      {"molecule": "O=C(Nc1ncn[nH]1)c1c(Cl)ccc(Cl)c1Cl", "Potency": "inactive"},
      {"molecule": "Cc1ccc2cc(CN(CC3CCCO3)C(=S)NCc3ccco3)c(=O)[nH]c2c1", "note": "(centres undefined)", "Potency": "inconclusive: 7.08 µM [inhibitor, partial curve]"},
      {"molecule": "COc1ccc(CNCc2cc3c(C(C)(C)C)nn(-c4ccccc4)c3[nH]c2=O)cc1", "Potency": "inconclusive: 8.2 µM [inhibitor, partial curve]"},
      {"molecule": "CN1/C(=C\\C(=O)CSc2cccc[n+]2[O-])C(C)(C)c2ccccc21", "Potency": "inactive"},
      {"molecule": "COC(=O)CN(c1cc(Cl)ccc1OC)S(=O)(=O)c1ccc(C)cc1", "Potency": "inconclusive: 7.08 µM [inhibitor, partial curve, poor fit]"},
      {"molecule": "O=C(c1cc(-c2ccccc2)nc2ccccc12)N1CCN(c2ccccc2O)CC1", "Potency": "inconclusive: 3.98 µM [inhibitor, full curve]"},
      {"molecule": "COc1ccc(C(=O)C(CN2CCCC2)c2ccccc2)cc1", "note": "(centres undefined)", "Potency": "inconclusive: 15.8 µM [inhibitor, single point]"},
      {"molecule": "O=C(O)c1cc2ccccc2cn1", "Potency": "inactive"},
      {"molecule": "COC(=O)c1sccc1NC(=O)Nc1cc(C)cc(C)c1", "Potency": "inactive"},
      {"molecule": "Cc1cc(C(=O)N/N=C/c2c(C)nn(-c3ccccc3)c2C)n[nH]1", "Potency": "inactive"},
      {"molecule": "CC1(C)Cc2c(cnn2-c2ccccc2)C(=O)/C1=N\\NC(=O)c1ccncc1", "Potency": "inactive"},
      {"molecule": "N#Cc1c(Nc2ccccc2)sc(C(=O)c2ccc(F)cc2)c1N", "Potency": "inactive"},
      {"molecule": "O=C(NC(=S)Nc1ccccc1O)c1ccccc1Cl", "Potency": "inconclusive: 15.8 µM [inhibitor, single point]"},
      {"molecule": "Cc1cc(C)c(OCC(=O)OCC(=O)NCCC2=CCCCC2)c(C)c1", "Potency": "inactive"},
      {"molecule": "CCc1cc2c3c([nH]c2cc1S(=O)(=O)N1CCC2(CC1)OCCO2)CCCC3=O", "Potency": "inconclusive: 39.8 µM [inhibitor, partial curve, poor fit]"},
      {"molecule": "COc1ccc(OC)c(N(CC(=O)N2CCOCC2)S(C)(=O)=O)c1", "Potency": "inconclusive: 0.794 µM [inhibitor, partial curve, poor fit]"},
      {"molecule": "Cc1cccc2c1-c1sc(C(=O)NCc3ccccc3Cl)cc1CO2", "Potency": "inconclusive: 35.5 µM [inhibitor, single point]"},
      {"molecule": "COc1ccc(-c2csc(N(CCCN3CCOCC3)C(=O)c3ccco3)n2)cc1", "Potency": "inconclusive: 18.3 µM [inhibitor, single point]"},
      {"molecule": "Cc1cc(Cl)ccc1OCCCC(=O)N1CCCc2ccccc21", "Potency": "inactive"},
      {"molecule": "Cc1cccc(-n2c(N)c(-c3nc4ccccc4n3C)c3nc4ccccc4nc32)c1", "Potency": "inconclusive: 0.1 µM [activator, full curve, poor fit]"},
      {"molecule": "CSc1nnc(C(C)(C)C)c(=O)n1N/C=C1\\C(=O)CCC2=C1CCCC2", "Potency": "inactive"},
      {"molecule": "O=C(CCl)N1CCN(C(=O)C2COc3ccccc3O2)CC1", "note": "(centres undefined)", "Potency": "inconclusive: 22.4 µM [inhibitor, single point]"},
      {"molecule": "CCOc1ccc(CNC(=O)COc2cc(=O)n(C)c3ccccc23)cc1", "Potency": "inconclusive: 5.62 µM [activator, single point]"},
      {"molecule": "CCN(CC)CCn1c2c(c(SCC(=O)Nc3cc(OC)cc(OC)c3)nc1=O)CCC2", "Potency": "inconclusive: 5.01 µM [inhibitor, partial curve, poor fit]"},
      {"molecule": "Cc1cccc(C)c1-n1c(C)cc(/C=N/NC(N)=S)c1C", "Potency": "inconclusive: 35.5 µM [inhibitor, single point]"},
      {"molecule": "Cc1ccc(S(=O)(=O)Nc2cccc(Cl)c2)cc1NC(=O)c1cccnc1", "Potency": "inconclusive: 5.01 µM [inhibitor, full curve]"},
      {"molecule": "Cc1ccc(N(C(=O)c2ccc(S(=O)(=O)N3CCOCC3)cc2)C2C=CS(=O)(=O)C2)cc1", "note": "(centres undefined)", "Potency": "inactive"},
      {"molecule": "O=C(NCC(c1cccs1)N1CCOCC1)c1cn(-c2ccccc2)nc1-c1ccc(Cl)cc1", "note": "(centres undefined)", "Potency": "active: 10 µM"},
      {"molecule": "CCOC(=O)c1c(C)c(C(=O)N2CCc3ccccc3C2)c(C)n1CC", "Potency": "inconclusive: 8.2 µM [inhibitor, partial curve]"},
      {"molecule": "O=C(CCl)Nc1ccccc1C(=O)Nc1ccc2c(c1)OCO2", "Potency": "inconclusive: 10 µM [inhibitor, partial curve, poor fit]"},
      {"molecule": "Cc1ccccc1OCc1nnc(SCC(=O)O)n1Cc1ccccc1", "Potency": "inconclusive: 31.6 µM [activator, single point]"},
      {"molecule": "COC(=O)c1cc(C(=O)OC)n2ccc3cc(OC)c(OC)cc3c12", "Potency": "inconclusive: 5.31 µM [activator, single point]"},
      {"molecule": "CCOc1ccc(NC(=O)CN2C(=O)NC(CCSC)C2=O)cc1", "note": "(centres undefined)", "Potency": "inconclusive: 7.08 µM [activator, partial curve, poor fit]"},
      {"molecule": "COc1ccc(N2CCN(C(=O)c3ccc(Cn4nc(C)c([N+](=O)[O-])c4C)o3)CC2)cc1", "Potency": "inconclusive: 14.1 µM [inhibitor, partial curve, poor fit]"}
    ]}
  ]
}
